Laboratory results: PubChem BioAssay AID493014 (National Center for Advancing Translational Sciences (NCATS), 2011)
Some of the results follow. Shown are side measurements of this screen, not its main read-out; they come without a call. Most of these compounds were active or inconclusive in the main read-out, so they are no random draw. Words in brackets tell the shape of the fitted curve; partial curves, single points and poor fits give uncertain potencies.

Assay: qHTS Assay to Find Inhibitors of Chronic Active B-Cell Receptor Signaling
Settings: ABC-DLBCL IkBa-CBG/CBR reporter, luminescence ratio (green luciferase fused to IkBa over red control in TMD8 lymphoma cells), 4 h
Summary of the method: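 Doxycycline induced both beetle luciferases in TMD8 lymphoma cells; IKK-driven degradation limits the IkappaBalpha-fused green signal, while red luminescence normalises for cell number and nonspecific effects. Compounds tested up to 46 uM, 4 hrs.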

[1] = measured here: CBR red luminescence, cell number
[2] = measured here: IkBa-CBG green luminescence

Compound | AC50 [1] | AC50 [2]
Clc1ccc(-c2cn3ccccc3n2)cc1 | 15.8 µM [falling, single point] | –
COC(=O)C1=C(C)Nc2nnnn2C1c1cccnc1 (stereo unspecified) | 3.66 µM [rising, single point] | –
O=C1CC(N2CCOCC2)C(=O)N1c1cc(Cl)cc(Cl)c1 (stereo unspecified) | 11.2 µM [falling, partial curve, poor fit] | –
COc1ccccc1NC(=O)CCCc1c[nH]c2ccccc12 | 8.2 µM [falling, partial curve, poor fit] | –
O=C(Nc1sc2c(c1C(=O)O)CCC2)c1cccs1 | 2 µM [falling, full curve, poor fit] | –
COCCn1c(SCC(=O)Nc2ccccc2C)nc2c(oc3ccccc32)c1=O | 4.61 µM [rising, full curve, poor fit] | –
O=C(NN=C1CCCC1)c1cc(O)cc(O)c1 | 14.1 µM [falling, partial curve, poor fit] | –
COC(=O)/C=C/C(=O)N1CCN(c2ccccc2)CC1 | 23.1 µM [falling, partial curve, poor fit] | –
COc1ccc(/C=N\n2nnc3ccccc32)cc1 | 9.2 µM [falling, partial curve, poor fit] | –
COC(=O)c1cccc(C(=O)Nc2ccc(C)cc2)n1 | 12.6 µM [falling, partial curve] | –
CC(=C/C(=O)O)/C=C/c1ccc(Cl)o1 | 0.0058 µM [rising, full curve, poor fit] | –
CCOC(=O)c1cc2c(ccn2C)n1CC(=O)N1CCN(c2ccccc2OC)CC1 | 12.6 µM [rising, single point] | –
COc1ccc(NC(=O)c2cccc(N3C(=O)c4cccc([N+](=O)[O-])c4C3=O)c2)cc1 | 11.2 µM [falling, partial curve, poor fit] | –
COC(=O)CNC(c1ccccc1Cl)c1cc(Br)ccc1NC(=O)CCN1CCOCC1 (stereo unspecified) | 10 µM [falling, partial curve] | –
O=C(NCc1ccccc1)c1cccc(COc2ccc3c(c2)CCC3)c1 | 29.1 µM [falling, single point] | –
COc1cccc(C(=O)Nc2cccc(NC(=O)c3cccs3)c2)c1 | 8.91 µM [falling, partial curve, poor fit] | –
COc1cccc(C(=O)Nc2cccc(-c3ccccc3)c2)c1 | 35.5 µM [falling, single point] | –
CCS(=O)(=O)N(CC(=O)Nc1cccc2ccccc12)c1ccc(OC)cc1 | 6.51 µM [rising, single point] | –
CCCCC(=O)NC1(C(F)(F)F)C(=O)Nc2c1c(=O)n(C)c(=O)n2C (stereo unspecified) | 29.1 µM [falling, single point] | –
CCc1cccc(NC(=O)COc2ccccc2)c1 | 2.59 µM [rising, partial curve, poor fit] | –
CCn1cc(C(=O)N[C@@H](CCSC)C(=O)NCCO)c(=O)c2cc3c(cc21)OCO3 | 35.5 µM [rising, single point] | –
CCOC(=O)c1c(NC(=O)COC(=O)CNC(=O)c2ccco2)sc(C)c1C | 14.6 µM [rising, partial curve, poor fit] | –

Compound | AC50 [1] | AC50 [2]
CCN(CC)C(=O)c1ccc(-c2nnc(OC)c3ccccc23)cc1 | 35.5 µM [rising, single point] | –
COc1ccccc1NC(=O)N1CCN(C)CC1 | 14.1 µM [rising, partial curve, poor fit] | –
O=S(=O)(c1c(Cl)sc(Cl)c1Br)N1CCCC1 | 7.08 µM [rising, full curve, poor fit] | –
O=[N+]([O-])c1cc(-c2ncccn2)c([N+](=O)[O-])s1 | 18.4 µM [falling, partial curve] | –
O=C(/C=C/c1ccccc1)NCC(=O)N/N=C/c1ccccc1[N+](=O)[O-] | 11.2 µM [rising, partial curve, poor fit] | –
Cc1cc(C)n2c(SCCC(C)C)nnc2n1 | 0.562 µM [rising, full curve, poor fit] | –
Cc1cccc(OCCC(=O)Nc2ccccc2C(N)=O)c1 | 10 µM [falling, partial curve, poor fit] | –
CCCCc1nnc(NC(=O)C2CCCO2)s1 (stereo unspecified) | 6.51 µM [falling, single point] | –
N#Cc1cccc2c1-c1ccccc1/C2=N/NC(N)=S | 2.82 µM [rising, partial curve, poor fit] | 2.51 µM [falling, partial curve, poor fit]
CC(=O)Nc1ccc(-c2ccc(NC(C)=O)c(O)c2)cc1O | 20 µM [rising, partial curve, poor fit] | –
O=C(NCCN1CCOCC1)C1CCN(Cc2ccccc2O)CC1 | 0.92 µM [rising, full curve, poor fit] | –
CCOC(=O)Nc1ccc([N+](=O)[O-])cc1C | 3.66 µM [rising, full curve, poor fit] | –
CN(C)c1ccc(N=Cc2nc(-c3ccccc3)oc2OC(=O)c2cccc(Cl)c2)cc1 | 5.17 µM [falling, full curve] | –
O=C(N/C(=C/c1cccc(Br)c1)c1nc(=S)[nH][nH]1)c1ccccc1 | 2.06 µM [rising, full curve, poor fit] | –
COc1ccc(CC(=O)N/N=C(\C)c2ccccn2)cc1 | 0.651 µM [falling, partial curve, poor fit] | –
O=C(c1ccccc1)c1cc(-c2ccccc2)on1 | 32.6 µM [falling, single point] | –
Cc1ccc(S(=O)(=O)NC(Cc2ccccc2)C(=O)NN)cc1 (stereo unspecified) | 6.31 µM [falling, single point] | –
Cc1nc2c(ccc3nc(NC(=O)C4CC4)sc32)s1 | 7.08 µM [falling, full curve] | –
COC(=O)[C@@H](NCc1cccc(CN([C@H](C(=O)OC)C(C)C)S(C)(=O)=O)c1)C(C)C | 35.5 µM [falling, partial curve, poor fit] | –
COc1ccc(-c2cc(COc3ccccc3)on2)cc1 | 2.24 µM [rising, partial curve, poor fit] | –
COCc1cc(C)nc(Sc2nc3c(c(=O)n(C)c(=O)n3C)n2C)c1C#N | 2.82 µM [falling, partial curve, poor fit] | –
COc1ccccc1OCCNC(=O)c1ccc(Br)cc1 | 22.4 µM [falling, single point] | –

Compound | AC50 [1] | AC50 [2]
Cn1c(SCc2nnc(-c3ccccc3Br)o2)nc2sc3c(c2c1=O)CCC3 | 10 µM [falling, partial curve] | –
N#C/C(=C\c1ccc(OC(=O)c2ccc(Cl)s2)cc1)c1nc2ccccc2[nH]1 | 3.26 µM [rising, full curve, poor fit] | –
CCc1ccc(C2=NN(C(=O)OC)C(O)(C(F)(F)F)C2)cc1 (stereo unspecified) | 7.94 µM [rising, partial curve] | –
CC(=O)NCCOc1nc(N2CCCCC2)nc(N2CCCCC2)n1 | 20 µM [falling, partial curve, poor fit] | –
CCOc1ccccc1CNC(=O)C1CCCN(c2nn3c(=O)cc(C)nc3s2)C1 (stereo unspecified) | 0.2 µM [rising, full curve, poor fit] | –
COc1ccc(-c2nc3sc(CCNC(=O)C(=O)Nc4cccc(NC(C)=O)c4)c(C)n3n2)cc1 | 11.2 µM [falling, single point] | –
COc1ccc(C)cc1NC(=O)CN1CCCC1c1ccc2c(c1)OCCCO2 (stereo unspecified) | – | 0.164 µM [falling, partial curve, poor fit]
O=C(CSc1ncc(-c2ccccc2)n1C1CCCC1)N1CCc2ccccc21 | 2.82 µM [rising, full curve, poor fit] | –
CCc1nnc(NC(=O)CSc2nc3cc(OC)c(OC)cc3cc2C)s1 | 25.1 µM [falling, single point] | –
CSc1cccc(NS(=O)(=O)c2ccc3c(c2)CCN3C(C)=O)c1 | 0.398 µM [falling, full curve, poor fit] | –
O=C(CN1CCN(CCC(=O)Nc2ccccc2F)CC1)Nc1ccc(Cl)cc1 | 0.0891 µM [falling, full curve, poor fit] | –
CCOC(=O)N1CCN(CCC(=O)Nc2cc(C)ccc2OC)CC1 | 35.5 µM [rising, partial curve, poor fit] | –
CNCCC1Sc2ccccc2Oc2ccccc21 (stereo unspecified) | 7.08 µM [falling, partial curve, poor fit] | –
COc1ccc2oc(C(=O)N3CCN(C(c4ccccc4)c4ccccc4)CC3)c(C)c2c1 | 2.06 µM [falling, partial curve, poor fit] | –
O=S(=O)(O/N=C1\CCCc2ccccc21)c1ccc(Cl)cc1 | 6.51 µM [rising, single point] | –
CCN(C(=O)COC(=O)c1ccc(COc2ccc3c(C)cc(=O)oc3c2)cc1)C1CCS(=O)(=O)C1 (stereo unspecified) | 7.94 µM [falling, partial curve] | –
CCOC(=O)c1c(-c2ccc(Cl)cc2)csc1NC(=O)CNCc1ccco1 | 35.5 µM [falling, single point] | –
C=CCOC(=O)C1=C(C)NC(=O)NC1/C=C/c1ccccc1OC (stereo unspecified) | 8.91 µM [falling, partial curve, poor fit] | –
COc1ccc(-c2nnc(SC)n2C)cc1 | 0.708 µM [rising, full curve, poor fit] | –
Cc1ccc2c(c1)c(C)c(C)n2CC(O)Cn1nc(C)c(Br)c1C (stereo unspecified) | 35.5 µM [falling, single point] | –
Cc1cccc(NC(=O)Cn2c(O)c(N=NC(=O)c3ccccc3O)c3ccccc32)c1 | 1.84 µM [falling, full curve] | –
